Data on one substance can be found in article PMC5342210, “Staphylococcal protein Ecb impairs complement receptor-1 mediated recognition of opsonized bacteria” (PLoS ONE, 2017).

Sequences of proteins named here, by UniProt entry; tags and fusion partners are left off. A change or cut given only in a name is not applied to a line headed by its entry. Residues count along the entry.
UniProt P17927, residues 42-2039: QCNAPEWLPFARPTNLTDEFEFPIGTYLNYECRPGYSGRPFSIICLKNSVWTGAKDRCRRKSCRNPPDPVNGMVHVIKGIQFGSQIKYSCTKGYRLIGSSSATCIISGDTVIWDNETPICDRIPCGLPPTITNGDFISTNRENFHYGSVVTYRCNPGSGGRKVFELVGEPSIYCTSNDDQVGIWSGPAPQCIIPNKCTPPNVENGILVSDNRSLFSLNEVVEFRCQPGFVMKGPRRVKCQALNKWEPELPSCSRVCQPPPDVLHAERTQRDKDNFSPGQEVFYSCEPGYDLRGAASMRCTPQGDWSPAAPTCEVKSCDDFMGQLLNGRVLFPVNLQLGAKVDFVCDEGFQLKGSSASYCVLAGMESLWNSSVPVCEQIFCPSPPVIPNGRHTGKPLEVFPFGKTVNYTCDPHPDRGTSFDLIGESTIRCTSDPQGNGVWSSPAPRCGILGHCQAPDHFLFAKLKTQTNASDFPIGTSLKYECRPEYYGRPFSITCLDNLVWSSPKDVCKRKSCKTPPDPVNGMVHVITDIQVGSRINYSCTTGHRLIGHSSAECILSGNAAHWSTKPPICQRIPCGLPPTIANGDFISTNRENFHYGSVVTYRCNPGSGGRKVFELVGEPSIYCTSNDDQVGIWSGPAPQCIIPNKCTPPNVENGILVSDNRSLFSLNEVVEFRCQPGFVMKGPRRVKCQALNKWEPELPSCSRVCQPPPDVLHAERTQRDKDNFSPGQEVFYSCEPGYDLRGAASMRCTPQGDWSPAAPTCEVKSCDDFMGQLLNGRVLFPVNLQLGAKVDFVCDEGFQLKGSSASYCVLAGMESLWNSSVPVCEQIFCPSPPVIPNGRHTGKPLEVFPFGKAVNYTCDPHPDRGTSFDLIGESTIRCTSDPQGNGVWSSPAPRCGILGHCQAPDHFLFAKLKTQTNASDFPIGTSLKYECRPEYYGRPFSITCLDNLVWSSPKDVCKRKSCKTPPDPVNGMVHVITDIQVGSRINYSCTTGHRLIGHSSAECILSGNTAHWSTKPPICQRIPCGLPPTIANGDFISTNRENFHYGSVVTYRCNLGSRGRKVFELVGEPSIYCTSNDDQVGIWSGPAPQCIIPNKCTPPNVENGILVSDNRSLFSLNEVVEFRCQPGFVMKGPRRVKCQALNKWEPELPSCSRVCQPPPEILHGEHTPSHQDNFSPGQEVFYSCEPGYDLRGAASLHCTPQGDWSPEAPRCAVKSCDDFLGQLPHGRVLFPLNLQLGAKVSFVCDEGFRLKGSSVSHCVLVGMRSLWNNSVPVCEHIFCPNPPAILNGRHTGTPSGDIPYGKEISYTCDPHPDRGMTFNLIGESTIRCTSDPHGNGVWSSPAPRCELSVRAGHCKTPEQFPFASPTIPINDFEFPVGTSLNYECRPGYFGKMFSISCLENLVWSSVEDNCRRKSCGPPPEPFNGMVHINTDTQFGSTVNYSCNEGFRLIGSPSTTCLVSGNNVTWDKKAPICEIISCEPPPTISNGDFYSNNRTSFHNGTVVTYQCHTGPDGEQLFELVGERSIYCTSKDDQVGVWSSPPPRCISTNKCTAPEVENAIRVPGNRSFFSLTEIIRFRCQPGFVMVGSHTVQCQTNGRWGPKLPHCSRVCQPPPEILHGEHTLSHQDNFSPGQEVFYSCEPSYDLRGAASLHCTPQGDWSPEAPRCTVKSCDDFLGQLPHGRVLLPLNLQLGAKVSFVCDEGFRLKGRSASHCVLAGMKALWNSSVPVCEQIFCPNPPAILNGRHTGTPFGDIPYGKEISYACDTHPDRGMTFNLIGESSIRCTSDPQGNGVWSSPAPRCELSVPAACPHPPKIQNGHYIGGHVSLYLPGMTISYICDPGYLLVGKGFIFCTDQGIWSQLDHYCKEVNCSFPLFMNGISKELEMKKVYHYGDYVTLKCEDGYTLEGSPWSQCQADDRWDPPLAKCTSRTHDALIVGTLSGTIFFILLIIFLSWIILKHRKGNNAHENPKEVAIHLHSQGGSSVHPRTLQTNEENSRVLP
UniProt P01024: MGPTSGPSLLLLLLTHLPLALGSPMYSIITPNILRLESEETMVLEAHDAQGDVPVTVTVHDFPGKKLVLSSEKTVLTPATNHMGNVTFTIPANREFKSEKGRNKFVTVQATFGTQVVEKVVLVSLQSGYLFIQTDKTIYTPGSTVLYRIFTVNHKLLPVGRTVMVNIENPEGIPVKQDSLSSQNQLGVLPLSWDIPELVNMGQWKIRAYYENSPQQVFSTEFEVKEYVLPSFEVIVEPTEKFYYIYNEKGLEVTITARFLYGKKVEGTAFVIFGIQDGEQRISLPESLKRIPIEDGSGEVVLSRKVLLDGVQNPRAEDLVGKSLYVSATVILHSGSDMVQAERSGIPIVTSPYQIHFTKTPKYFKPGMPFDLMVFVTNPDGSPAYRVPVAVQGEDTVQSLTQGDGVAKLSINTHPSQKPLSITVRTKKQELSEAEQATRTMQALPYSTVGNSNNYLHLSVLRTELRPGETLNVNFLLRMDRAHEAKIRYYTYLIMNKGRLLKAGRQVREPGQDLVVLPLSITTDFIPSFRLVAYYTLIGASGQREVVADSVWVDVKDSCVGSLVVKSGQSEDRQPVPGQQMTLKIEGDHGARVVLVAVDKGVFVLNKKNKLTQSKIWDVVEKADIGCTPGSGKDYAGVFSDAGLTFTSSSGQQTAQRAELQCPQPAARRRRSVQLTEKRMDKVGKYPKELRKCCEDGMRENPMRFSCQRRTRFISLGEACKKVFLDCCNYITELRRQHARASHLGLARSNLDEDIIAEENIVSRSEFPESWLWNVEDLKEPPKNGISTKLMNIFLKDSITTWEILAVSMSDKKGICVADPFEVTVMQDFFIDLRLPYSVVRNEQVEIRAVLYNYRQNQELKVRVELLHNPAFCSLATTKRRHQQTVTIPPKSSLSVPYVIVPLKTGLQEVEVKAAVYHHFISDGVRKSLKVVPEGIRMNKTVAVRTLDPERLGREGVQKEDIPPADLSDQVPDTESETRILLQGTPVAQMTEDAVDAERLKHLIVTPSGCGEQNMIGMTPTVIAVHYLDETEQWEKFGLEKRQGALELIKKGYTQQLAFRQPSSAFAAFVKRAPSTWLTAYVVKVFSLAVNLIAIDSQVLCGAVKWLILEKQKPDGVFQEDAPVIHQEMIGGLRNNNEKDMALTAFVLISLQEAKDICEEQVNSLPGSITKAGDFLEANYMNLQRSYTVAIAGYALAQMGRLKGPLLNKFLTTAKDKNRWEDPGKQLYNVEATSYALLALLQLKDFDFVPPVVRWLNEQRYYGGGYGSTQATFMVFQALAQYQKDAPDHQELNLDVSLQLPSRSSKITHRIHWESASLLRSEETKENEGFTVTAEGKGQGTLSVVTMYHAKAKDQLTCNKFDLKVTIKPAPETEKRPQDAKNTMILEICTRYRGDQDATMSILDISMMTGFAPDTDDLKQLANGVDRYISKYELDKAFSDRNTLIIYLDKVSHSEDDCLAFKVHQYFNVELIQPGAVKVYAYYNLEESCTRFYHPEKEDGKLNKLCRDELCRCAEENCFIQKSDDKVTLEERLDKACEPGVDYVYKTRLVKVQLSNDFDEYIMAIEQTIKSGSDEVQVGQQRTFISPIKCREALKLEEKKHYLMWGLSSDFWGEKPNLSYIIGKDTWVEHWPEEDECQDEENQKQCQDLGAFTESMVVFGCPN

Results are given in words; binding and its absence hold for the method and conditions named. Some results given as binding are weak or reduced against the parent protein; the word gives no strength.

The target of this assay is Complement receptor-1 (CR1, CD35), cell surface-bound (human (endogenous in red blood cells and neutrophils)) (UniProt P17927). The assay is described as follows: flow cytometry on cells; about 1 x 10^6 washed red cells with C3b (50 ug/ml) together with Ecb (0-0.1 uM), 30 min at 4 C; rabbit anti-human C3c and Alexa Fluor 488-labeled goat anti-rabbit; only the binder purified.

With C3b (from UniProt P01024), the binding result is on record as “binds”.
